Measured values published in paper PMC8234533.
No constants are given. Whether binding was seen depends on the method and setting. In cells and extracts the contact can be indirect. Some results given as binding are weak or reduced against the parent protein; the word gives no strength.

Amino acid sequences for entries named in this document (tags omitted). A change or cut given only in a name is not applied to a line headed by its entry. Residues count along the entry.
UniProt P38646, residues 47-679: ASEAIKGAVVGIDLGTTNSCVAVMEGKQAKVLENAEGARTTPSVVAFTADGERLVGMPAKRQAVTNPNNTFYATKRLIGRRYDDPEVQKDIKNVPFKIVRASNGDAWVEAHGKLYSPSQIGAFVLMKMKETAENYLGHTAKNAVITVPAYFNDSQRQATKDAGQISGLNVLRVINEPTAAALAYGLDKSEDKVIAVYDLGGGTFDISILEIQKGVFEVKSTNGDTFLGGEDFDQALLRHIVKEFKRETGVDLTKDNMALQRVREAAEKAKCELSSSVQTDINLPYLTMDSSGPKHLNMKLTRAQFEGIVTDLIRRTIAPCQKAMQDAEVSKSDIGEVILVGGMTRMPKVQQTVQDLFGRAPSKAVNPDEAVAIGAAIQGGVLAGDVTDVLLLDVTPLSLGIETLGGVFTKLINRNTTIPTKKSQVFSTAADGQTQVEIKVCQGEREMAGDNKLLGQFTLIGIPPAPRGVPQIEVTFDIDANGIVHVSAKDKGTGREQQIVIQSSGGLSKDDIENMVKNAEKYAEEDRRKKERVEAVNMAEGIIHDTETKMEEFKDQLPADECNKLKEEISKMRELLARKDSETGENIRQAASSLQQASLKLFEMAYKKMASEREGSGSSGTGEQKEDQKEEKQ
UniProt O95831, residues 102-613: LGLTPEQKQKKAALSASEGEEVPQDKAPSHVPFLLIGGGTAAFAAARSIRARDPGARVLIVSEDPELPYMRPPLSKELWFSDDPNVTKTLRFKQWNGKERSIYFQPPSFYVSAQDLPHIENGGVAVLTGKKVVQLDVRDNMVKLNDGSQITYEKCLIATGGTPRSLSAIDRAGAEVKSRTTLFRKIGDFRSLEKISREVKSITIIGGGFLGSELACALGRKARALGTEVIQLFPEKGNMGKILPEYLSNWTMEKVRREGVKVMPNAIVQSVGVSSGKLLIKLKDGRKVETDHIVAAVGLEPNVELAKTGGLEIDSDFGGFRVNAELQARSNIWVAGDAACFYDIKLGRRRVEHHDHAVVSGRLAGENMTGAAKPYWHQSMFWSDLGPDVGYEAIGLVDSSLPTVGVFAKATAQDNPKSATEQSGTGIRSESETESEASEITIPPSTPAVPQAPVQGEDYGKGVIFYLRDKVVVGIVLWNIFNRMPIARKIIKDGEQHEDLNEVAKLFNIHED

Target: Mortalin/GRP75/HSPA9/mthsp70 (human (endogenous in MCF-7 and T47D)) (UniProt P38646)
Experiment: co-IP; anti-mortalin antibody and Protein A/G PLUS-Agarose, 4 °C overnight, NP40 lysates (300-500 ug protein) of control MCF-7 and T47D cells; for AIF control and Mortaparib^Plus-treated T47D cells; blots with anti-p53 (DO-1) or anti-AIF (E-1); normal rabbit IgG as control

Substance: apoptosis-inducing factor (AIF) (from UniProt O95831 102-613)
- binding: binds
